As usually defined, the AC50 is the concentration giving half of the maximal activity seen. Read a high AC50 as activity only at high concentration.

Drawing on PubChem BioAssay AID2685 (National Center for Advancing Translational Sciences (NCATS), 2010), this text covers cell number change and AC50 for 58 molecules.

The assay can be described thus: qHTS Assay for Lipid Storage Modulators in Drosophila S3 Cells.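 For cell number change: cells counted by Cell Tracker Red CMTPX staining in the red channel.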 The following applies: BODIPY lipid droplet fluorescence, 18-24 h; for cell number change: measured here: cell count max response, cells fed with added oleic acid. The method in brief: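 Drosophila S3 cells loaded with oleic acid (400 uM, as added) and compounds at several concentrations; lipid droplets imaged by 488-nm laser-scanning cytometry, 500–530 nm intensity and object ratio to cell channel. Percent activity normalized to 20 uM Triacsin C.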

Setting [1] is: measured here: cell number channel AC50, cells fed with added oleic acid.
Where [2] appears, read: measured here: lipid fluorescence (Fed channel) AC50, cells fed with added oleic acid.

Molecules are shown by their SMILES. The list shows a part of the results. The main result of the screen is listed elsewhere. These columns were measured beside it and carry no call. Most of these compounds were active or inconclusive in the main read-out, so they are no random draw. Words in brackets tell the shape of the fitted curve; partial curves, single points and poor fits give uncertain potencies.

As for `Cc1ccc(C(C)n2cc(C(=O)NCc3ccncc3)nn2)cc1` (stereo not drawn), the cell number change was 31.5%. Under setting [1], the AC50 is 8.2 µM [rising, single point]. For the same molecule, the AC50 under setting [2] is 23.1 µM [rising, single point].

For `CC(/C=N/Nc1nc2ccccc2[nH]1)=C\c1ccccc1`, the cell number change was -46.7%. The AC50 under setting [1] was 7.31 µM [falling, partial curve].

On to `CCCCn1c(-c2ccc(F)c(F)c2)nc2cc3[nH]c(=O)c(C(C)C)nc3cc21`, for which the cell number change is 22.7%.

As to `CC(C)c1ccc(NC(=S)Nc2ccc3cn[nH]c3c2)cc1`, the cell number change was -22%. Besides, under setting [1], the AC50 is 0.291 µM [rising, single point].

`CCCCn1c(N)c(N(CCOC)C(=O)CN2c3ccccc3CC2C)c(=O)[nH]c1=O` (stereo not drawn): the cell number change was 7.94%. Also, the AC50 under setting [1] is 3.66 µM [rising, single point].

As to `O=C(NCCCN1CCN(CCCNC(=O)c2cccc([N+](=O)[O-])c2)CC1)c1cccc([N+](=O)[O-])c1`, the concentration at half-maximal activity (AC50) under setting [1] is 0.731 µM [falling, single point].

Regarding `Cc1nnc(SC(C)C(=O)Nc2sc3c(c2C#N)CCCC3)[nH]c1=O` (stereo not drawn), the cell number change is 10.8%.

Take `COC(=O)COc1ccc(/C=C2/NC(=O)N(CC(=O)OC)C2=O)cc1`: the cell number change came out at 11.8%. Under setting [1], the AC50 was 0.411 µM [falling, single point].

As to `NC1=NC(=O)/C(=C/c2ccc(Cl)cc2Cl)S1`, the cell number change is -9.18%. Moreover, the AC50 under setting [2] was 3.66 µM [falling, full curve, poor fit].

As for `COc1ccccc1N(CC(=O)N1CCCCC1)S(=O)(=O)c1ccccc1`, the cell number change was determined as 0.643%. For the same molecule, the AC50 under setting [2] is 0.58 µM [falling, partial curve, poor fit].

As for `CCOC(=O)C1CCCN(c2oc(-c3ccc(OC)cc3)nc2C#N)C1` (stereo not drawn), the cell number change came to 51.2%. Under setting [1], the AC50 was 5.17 µM [rising, partial curve, poor fit].

As to `CN(Cc1ccon1)C(=O)CC1C(=O)NCCN1Cc1ccc(F)c(F)c1` (stereo not drawn), the cell number change is -3.18%. Also, under setting [2], the AC50 is 1.46 µM [falling, partial curve].

In the case of `Cc1ccc(C(=O)C2CCN(CC(=O)Nc3ccc(N(C)C)cc3)CC2)cc1`, the cell number change stood at 23.4%. Further, the AC50 under setting [2] was 10.3 µM [rising, partial curve].

As for `CC(OC(=O)Nc1cccc(Cl)c1)C(=O)O` (stereo not drawn), the AC50 under setting [2] is 6.51 µM [falling, single point].

As for `CCOC(=O)C1=C(CSc2nc3c(cc2C#N)CN(C)CC3)OC(N)=C(C#N)C1c1ccncc1` (stereo not drawn), the cell number change came out at 28.5%. For the same molecule, the AC50 under setting [2] is 0.0291 µM [rising, full curve, poor fit].

For the molecule `COc1cc(-c2nn3c(COc4ccccc4)nnc3s2)cc(OC)c1OC`, the cell number change is -11.6%. Moreover, the AC50 under setting [2] is 0.731 µM [rising, full curve, poor fit].

`COc1cccc(CN2CCN(C(=O)c3cc(-c4cccnc4)nc4ccc(C)cc34)CC2)c1`: the cell number change is -16%. Besides, under setting [2], the AC50 was 14.6 µM [falling, partial curve].

Regarding `CCCCn1c(N)c(N(CCC(C)C)C(=O)c2sc3nc4n(c(=O)c3c2C)CCC4)c(=O)[nH]c1=O`, the cell number change was found to be 2.44%. For the same molecule, the AC50 under setting [2] is 1.46 µM [falling, partial curve].

Turning to `Cc1cccc(C)c1NC(=S)N/N=C/c1ccccc1C(=O)O`, the cell number change is -9.96%. Under setting [2], the AC50 is 0.731 µM [falling, full curve, poor fit].

For the molecule `COc1ccccc1NS(=O)(=O)c1ccc(C(=O)NCC2(N(C)C)CCCCC2)cc1`, the cell number change is -10.7%.

Consider `C/C(=C\C(=O)c1ccccc1)Nc1ccc(N2CCOCC2)cc1`, for which the cell number change was -4.94%. Besides, the AC50 under setting [1] was 0.092 µM [rising, full curve]. Under setting [2], the AC50 was 0.82 µM [falling, partial curve].

Regarding `CC1CCCC(NC(=O)COC(=O)c2ccc3ccccc3n2)C1C` (stereo not drawn), the AC50 under setting [2] is 2.31 µM [falling, partial curve].

Regarding `N#C/C(C(=O)NCc1ccco1)=C1/SC(Cc2ccc(Cl)cc2)C(=O)N1c1ccccc1` (stereo not drawn), the cell number change is 3.57%.

Consider `COc1ccccc1C(=O)C1CCCN(C(=O)Nc2ccccc2F)C1` (stereo not drawn), for which the cell number change stood at 8.91%. Moreover, under setting [2], the AC50 is 0.00517 µM [rising, full curve, poor fit].

`N#Cc1cc2ccccc2nc1SCC(=O)Nc1ccc(S(=O)(=O)N2CCCC2)cc1`: the cell number change is -2.17%. The half-maximal activity concentration (AC50) under setting [2] was 1.03 µM [rising, partial curve].

As for `CC(C(=O)Nc1sc2c(c1C(=O)NCc1ccco1)CCCC2)N1C(=O)c2ccccc2C1=O` (stereo not drawn), the cell number change stood at 51.1%. Moreover, the AC50 under setting [1] was 1.84 µM [rising, full curve]. In addition, under setting [2], the AC50 is 4.11 µM [rising, partial curve].

For `Cc1ccc(/C=C/C(=O)Nc2nccs2)o1`, the cell number change was -14.3%.

Take `CCn1c(SCC(=O)n2c(C)c(C)c3ccccc32)nnc1-c1ccco1`: the cell number change was -36.7%. The AC50 under setting [1] was 29.1 µM [falling, partial curve, poor fit]. For the same molecule, under setting [2], the AC50 is 1.16 µM [falling, full curve].

As for `O=C(c1ccccc1)c1ccc(Cn2cc(-c3ccccc3)nn2)cc1`, the cell number change was -15.9%. Moreover, the AC50 under setting [2] is 0.184 µM [falling, full curve, poor fit].

Regarding `O=C(CCC(=O)N1CCOc2ccccc21)N1CCOCC1`, the cell number change is -2.88%. Moreover, under setting [2], the AC50 was 0.00411 µM [rising, full curve, poor fit].

`CN(CC(=O)Nc1ccc(Cl)c(C(F)(F)F)c1)C(=O)c1ccc2c(c1)NC(=O)CS2`: the cell number change was -10.7%. For the same molecule, under setting [1], the AC50 is 0.291 µM [falling, partial curve, poor fit]. In addition, the AC50 under setting [2] was 2.06 µM [falling, partial curve, poor fit].

On to `CC1(C)Oc2ccc3ccc(=O)oc3c2/C(=C/NCCO)C1=O`, for which the cell number change was -19%. In addition, the AC50 under setting [2] was 29.1 µM [rising, single point].

With `S=c1nc(-c2cc(Cl)ccc2Cl)[nH][nH]1`, the cell number change is 11.9%. Moreover, the AC50 under setting [2] was 0.58 µM [falling, single point].

Consider `Cc1cc(C)cc(N(CC(=O)N2CCn3c2nc2ccccc23)S(=O)(=O)c2c(C)noc2C)c1`, for which the cell number change stood at 45.3%. Besides, the AC50 under setting [1] is 29.1 µM [rising, single point]. Besides, the AC50 under setting [2] is 29.1 µM [rising, partial curve].

Consider `Cc1cccc(Cn2nc(C(C)(C)C)cc2C(=O)N2CCOCC2)c1`, for which the cell number change was -5.56%.

Take `CCOc1ccc(-c2n[nH]c(C(=O)NN)c2C)cc1`: the AC50 under setting [2] was 1.64 µM [falling, partial curve, poor fit].

Take `CC(=O)c1cccc(NCC(=O)N2CCN(S(=O)(=O)c3ccccc3)CC2)c1`: the cell number change is -29.5%. For the same molecule, the AC50 under setting [2] is 29.1 µM [falling, single point].

As for `O=C(Nc1ccc(NC(=O)c2cccnc2)cc1)c1ccccc1`, the cell number change worked out at 2.56%. For the same molecule, the concentration at half-maximal activity (AC50) under setting [2] is 0.103 µM [falling, full curve, poor fit].

Turning to `O=C(NCCCn1ccnc1)c1cn(Cc2ccc(F)cc2)nn1`, the cell number change came to 75.2%. The AC50 under setting [1] was 9.2 µM [rising, partial curve]. The AC50 under setting [2] is 18.4 µM [rising, partial curve].

On to `CCn1c(=O)c(C(=O)NC(C)C)c(O)c2ccccc21`, for which the cell number change was -3.7%. Further, the AC50 under setting [2] was 6.51 µM [rising, single point].

Consider `CCN(CC(=O)Nc1c(F)cccc1F)C(=O)CCC(=O)c1ccc(F)cc1`, for which the cell number change is -20.8%.

`O=C(Nc1ccc2c(c1)OCCO2)c1cc2sccc2n1Cc1ccccc1`: the cell number change was -46.5%. Further, the AC50 under setting [1] was 3.66 µM [falling, full curve]. The AC50 under setting [2] is 1.64 µM [falling, partial curve].

`CC1(C)CC(N=Cc2c(O)n(Cc3ccc4c(c3)OCO4)c(=O)c3ccccc23)CC(C)(C)N1`: the cell number change is -37.7%. For the same molecule, under setting [1], the AC50 was 32.6 µM [falling, single point].

For the molecule `COc1cc(NC(=O)c2ccc(N3CC4CC(C3)c3cccc(=O)n3C4)c(NC(=O)c3ccncc3)c2)cc(OC)c1OC` (stereo not drawn), the cell number change worked out at 6.05%.

For `CN1CCN(S(=O)(=O)c2ccc(NC(=O)C(C)(C)C)cc2)CC1`, under setting [1], the AC50 was 6.51 µM [falling, single point].

For `COc1cc(C(=O)NC2CCCCC2)ccc1OC1CCN(C(C)=O)CC1`, the cell number change came to 9.49%. For the same molecule, the AC50 under setting [1] was 0.00411 µM [rising, full curve, poor fit]. For the same molecule, the AC50 under setting [2] was 29.1 µM [falling, single point].

Regarding `Cc1ccc(C(=O)Nc2ccccc2N2CCOCC2)cc1S(=O)(=O)N1CCOCC1`, the cell number change turned out to be 15.5%. For the same molecule, under setting [1], the AC50 was 0.00411 µM [rising, full curve, poor fit]. For the same molecule, under setting [2], the AC50 is 0.0146 µM [rising, full curve, poor fit].

For the molecule `O=C(CSc1nnc(-c2cccs2)o1)c1cccs1`, the cell number change is -9.87%. The AC50 under setting [2] is 7.31 µM [falling, partial curve, poor fit].

On to `O=C(c1cccs1)N1CCCC(c2nc3c(nnn3Cc3ccccc3)c(=O)[nH]2)C1` (stereo not drawn), for which the cell number change is -44%. Further, the half-maximal activity concentration (AC50) under setting [1] is 8.2 µM [falling, partial curve]. Further, under setting [2], the AC50 is 14.6 µM [falling, partial curve, poor fit].

Turning to `NC(=O)C1CCN(C(=O)COc2ccc3ccc(=O)oc3c2)CC1`, the cell number change is -15.1%. The AC50 under setting [2] is 0.164 µM [falling, full curve, poor fit].

In the case of `CCn1c(=O)n(CC)c2cc(NC(=O)c3ccccc3Cl)ccc21`, the cell number change is -16.9%.

Consider `O=C(COC(=O)CCSc1ccccc1)NCc1ccccc1`, for which the cell number change worked out at 43.9%. Also, under setting [1], the AC50 is 3.66 µM [rising, full curve].

For `O=C(Nc1ccccc1[N+](=O)[O-])C1C(c2ccccc2)=C1c1ccccc1`, the cell number change was -11.6%. The AC50 under setting [2] was 29.1 µM [falling, single point].

For the molecule `CC(=O)c1cn(CC(=O)Nc2ccccc2F)c2ccccc12`, the cell number change is 10.5%.

Turning to `CCCCOC(=O)c1ccc(NC(=O)Nc2ccc(OC)c(OC)c2)cc1`, the cell number change was -2.42%. The AC50 under setting [1] is 0.92 µM [rising, full curve]. Further, the AC50 under setting [2] is 0.651 µM [rising, single point].

Take `Cc1ccc(C(C)C)cc1S(=O)(=O)Nc1cccnc1`: the cell number change was -18.5%. For the same molecule, the AC50 under setting [2] was 0.461 µM [falling, full curve, poor fit].

Take `CSc1ncccc1C(=O)NNc1cc(Cl)ccc1Cl`: the cell number change is -5.47%. Under setting [1], the AC50 was 0.00461 µM [falling, full curve, poor fit]. The half-maximal activity concentration (AC50) under setting [2] was 0.517 µM [falling, single point].

Turning to `Cc1nn(C)cc1C(=O)Nc1cc(Oc2ccc(Cl)cc2)cc([N+](=O)[O-])c1`, the cell number change was -42.5%.
